The target of test [1] is PIGK_Q92643_92_LGIPDSHIVLMLADDMACNPR (UniProt Q92643). Kind of test: probe-labelled cysteine peptide fold change vs DMSO (competition) (log2 fold change); higher = less target engagement (more negative = stronger competition). The following applies: THP-1, incubation time: 4 h.
The target in test [2] is PIGK_Q92643_92_RLGIPDSHIVLMLADDMACNPR (UniProt Q92643). The test is described as above. The conditions noted are these: THP-1, incubation time: 4 h.

Amino acid sequences for entries named in this document (tags omitted). A change or cut given only in a name is not applied to a line headed by its entry.
UniProt Q92643: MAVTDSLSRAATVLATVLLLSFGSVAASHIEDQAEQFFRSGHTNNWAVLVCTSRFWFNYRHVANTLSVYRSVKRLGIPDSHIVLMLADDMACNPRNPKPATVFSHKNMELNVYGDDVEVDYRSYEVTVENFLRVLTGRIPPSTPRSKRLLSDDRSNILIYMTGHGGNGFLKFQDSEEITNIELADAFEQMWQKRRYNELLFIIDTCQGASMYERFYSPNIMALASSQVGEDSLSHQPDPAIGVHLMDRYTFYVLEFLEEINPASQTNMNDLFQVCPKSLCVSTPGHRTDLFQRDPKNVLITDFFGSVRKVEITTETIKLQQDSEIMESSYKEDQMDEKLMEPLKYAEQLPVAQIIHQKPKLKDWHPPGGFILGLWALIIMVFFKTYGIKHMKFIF

Some of the results follow.
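Further: competitive profiling in live THP-1 cells: cysteine peptides tagged with an iodoacetamide desthiobiotin (IA-DTB) probe, intensity after compound treatment relative to DMSO-treated cells.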

On to `Cc1cc(C(=O)N2CCCN(C(=O)CCl)CC2)ccc1-c1ccccc1` [compound 10], for which the “probe-labelled cysteine peptide fold change” value was 0.0527 in test [1] (10 µM), -0.0492 in test [1] (50 µM), -0.00909 in test [2] (10 µM) and 0.103 in test [2] (50 µM).
